Structures can show the parent of a compound that is named as a salt. Some of the results follow. Repeats in this data set agree poorly, so a single value says little.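 ReNCell VM, a human fetal ventral-midbrain neural progenitor line, was differentiated without mitogens. Blinded raters scored images stained for doublecortin (early neurons) or tyrosine hydroxylase (dopaminergic neurons) against untreated wells (0 = no change). Scores were averaged across repeats and both raters, and compounds averaging 2 or more were selected as hits for retesting.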
Experiments:
ReNCell VM [1] = test: neuronal differentiation score (DCX+ cell fraction vs untreated, manual image score) (score (-3 to 3)); higher = more neuronal differentiation; details: 2 uM, 2 weeks
ReNCell VM [2] = test: dopaminergic neuron differentiation score (TH+ cell fraction vs untreated, manual image score) (score (0 to 3)); higher = more TH+ dopaminergic neuron differentiation; details: 2 uM, 4 weeks, BDNF 10 ng/ml + GDNF 10 ng/ml

CCOc1cc(CC(=O)N[C@@H](CC(C)C)c2ccccc2N2CCCCC2)ccc1C(=O)O [Repaglinide]
inactive: neuronal differentiation score (ReNCell VM [1]; library: Prestwick) 0 | neuronal differentiation score (ReNCell VM [1]; library: Tocriscreen) 0 | dopaminergic neuron differentiation score (ReNCell VM [2]; library: Prestwick) 0 | dopaminergic neuron differentiation score (ReNCell VM [2]; library: Tocriscreen) 0

CCN(CC)CCNC(=O)c1cc(S(C)(=O)=O)ccc1OC [Tiapride hydrochloride]
inactive: neuronal differentiation score (ReNCell VM [1]; library: LOPAC) 0 | neuronal differentiation score (ReNCell VM [1]; library: Prestwick) 0 | dopaminergic neuron differentiation score (ReNCell VM [2]; library: LOPAC) 0 | dopaminergic neuron differentiation score (ReNCell VM [2]; library: Prestwick) 0

CC[N+](CC)(CC)CCOc1ccc(/C=C/c2ccccc2)cc1
inactive: neuronal differentiation score (ReNCell VM [1]; library: LOPAC) 0 | neuronal differentiation score (ReNCell VM [1]; library: Tocriscreen) 0 | dopaminergic neuron differentiation score (ReNCell VM [2]; library: LOPAC) 0 | dopaminergic neuron differentiation score (ReNCell VM [2]; library: Tocriscreen) 0

CCOC(=O)C1=C(C)NC(C)=C(C(=O)OC)C1c1cccc(Cl)c1Cl (centres undefined) [Felodipine]
inactive: neuronal differentiation score (ReNCell VM [1]; library: LOPAC) -1 | neuronal differentiation score (ReNCell VM [1]; library: Prestwick) 0 | dopaminergic neuron differentiation score (ReNCell VM [2]; library: LOPAC) 0 | dopaminergic neuron differentiation score (ReNCell VM [2]; library: Prestwick) 0

NS(=O)(=O)c1cc2c(cc1Cl)NC(C1CC3C=CC1C3)NS2(=O)=O (centres undefined) [Cyclothiazide]
inactive: neuronal differentiation score (ReNCell VM [1]; library: LOPAC) 0 | neuronal differentiation score (ReNCell VM [1]; library: Tocriscreen) 0 | dopaminergic neuron differentiation score (ReNCell VM [2]; library: LOPAC) 0 | dopaminergic neuron differentiation score (ReNCell VM [2]; library: Tocriscreen) 0

Oc1c2ccccc2c2c3c(cccc13)N=N2
inactive: neuronal differentiation score (ReNCell VM [1]; library: LOPAC) 0 | neuronal differentiation score (ReNCell VM [1]; library: Tocriscreen) 0 | dopaminergic neuron differentiation score (ReNCell VM [2]; library: LOPAC) 0 | dopaminergic neuron differentiation score (ReNCell VM [2]; library: Tocriscreen) 0

Nc1ncnc2c1ncn2[C@@H]1O[C@H](CO)[C@@H](O)[C@H]1O [Adenosine]
inactive: neuronal differentiation score (ReNCell VM [1]; library: LOPAC) 0 | neuronal differentiation score (ReNCell VM [1]; library: Phytochemical) 0 | dopaminergic neuron differentiation score (ReNCell VM [2]; library: LOPAC) 0 | dopaminergic neuron differentiation score (ReNCell VM [2]; library: Phytochemical) 0

NC(N)=Nc1nc(CSCC/C(N)=N/S(N)(=O)=O)cs1 [Famotidine]
inactive: neuronal differentiation score (ReNCell VM [1]; library: LOPAC) 0 | neuronal differentiation score (ReNCell VM [1]; library: Prestwick) 0 | dopaminergic neuron differentiation score (ReNCell VM [2]; library: LOPAC) 0 | dopaminergic neuron differentiation score (ReNCell VM [2]; library: Prestwick) 0

NC1CCN(c2cccc(Cl)n2)CC1
inactive: neuronal differentiation score (ReNCell VM [1]; library: LOPAC) 0 | neuronal differentiation score (ReNCell VM [1]; library: Tocriscreen) 0 | dopaminergic neuron differentiation score (ReNCell VM [2]; library: LOPAC) 0 | dopaminergic neuron differentiation score (ReNCell VM [2]; library: Tocriscreen) 0

CCc1c2c(nc3ccc(OC(=O)N4CCC(N5CCCCC5)CC4)cc13)-c1cc3c(c(=O)n1C2)COC(=O)[C@]3(O)CC
inactive: neuronal differentiation score (ReNCell VM [1]; library: Spectrum) 0 | neuronal differentiation score (ReNCell VM [1]; library: Tocriscreen) 0 | dopaminergic neuron differentiation score (ReNCell VM [2]; library: Spectrum) 0 | dopaminergic neuron differentiation score (ReNCell VM [2]; library: Tocriscreen) 0

O=C(Nc1ccccc1)c1cc([N+](=O)[O-])ccc1Cl
inactive: neuronal differentiation score (ReNCell VM [1]; library: LOPAC) 0 | neuronal differentiation score (ReNCell VM [1]; library: Tocriscreen) 0 | dopaminergic neuron differentiation score (ReNCell VM [2]; library: LOPAC) 0 | dopaminergic neuron differentiation score (ReNCell VM [2]; library: Tocriscreen) 0

NNCCc1ccccc1 [Phenelzine sulfate]
inactive: neuronal differentiation score (ReNCell VM [1]; library: LOPAC) 0 | neuronal differentiation score (ReNCell VM [1]; library: Prestwick) 0 | dopaminergic neuron differentiation score (ReNCell VM [2]; library: LOPAC) 0 | dopaminergic neuron differentiation score (ReNCell VM [2]; library: Prestwick) 1

COc1ccc(NC(=O)c2ccc(-c3ccc(-c4noc(C)n4)cc3C)cc2)cc1N1CCN(C)CC1
inactive: neuronal differentiation score (ReNCell VM [1]; library: LOPAC) 0 | neuronal differentiation score (ReNCell VM [1]; library: Tocriscreen) 0 | dopaminergic neuron differentiation score (ReNCell VM [2]; library: LOPAC) 0 | dopaminergic neuron differentiation score (ReNCell VM [2]; library: Tocriscreen) 0

CC(=O)CCCCn1c(=O)c2c(ncn2C)n(C)c1=O [Pentoxifylline]
inactive: neuronal differentiation score (ReNCell VM [1]; library: LOPAC) 0 | neuronal differentiation score (ReNCell VM [1]; library: Prestwick) 0 | dopaminergic neuron differentiation score (ReNCell VM [2]; library: LOPAC) 0 | dopaminergic neuron differentiation score (ReNCell VM [2]; library: Prestwick) 0

CN(C)C/C=C(/c1ccc(Br)cc1)c1cccnc1 [Zimelidine dihydrochloride]
inactive: neuronal differentiation score (ReNCell VM [1]; library: LOPAC) 0 | neuronal differentiation score (ReNCell VM [1]; library: Tocriscreen) 0 | dopaminergic neuron differentiation score (ReNCell VM [2]; library: LOPAC) 0 | dopaminergic neuron differentiation score (ReNCell VM [2]; library: Tocriscreen) 0

Nc1ncnc2n[nH]c(Nc3ccc(F)cc3)c12
active: dopaminergic neuron differentiation score (ReNCell VM [2]; library: LOPAC) 3
inactive: neuronal differentiation score (ReNCell VM [1]; library: LOPAC) 0 | neuronal differentiation score (ReNCell VM [1]; library: Tocriscreen) 0 | dopaminergic neuron differentiation score (ReNCell VM [2]; library: Tocriscreen) 0

CC[C@]12CCCN3CCc4c(n(c5ccccc45)C(=O)C1)[C@@H]32 [Eburnamonine (-)]
inactive: neuronal differentiation score (ReNCell VM [1]; library: Phytochemical) 0 | neuronal differentiation score (ReNCell VM [1]; library: Prestwick) 0 | dopaminergic neuron differentiation score (ReNCell VM [2]; library: Phytochemical) 0 | dopaminergic neuron differentiation score (ReNCell VM [2]; library: Prestwick) 0

CC[C@H]1OC(=O)[C@H](C)[C@@H](O[C@H]2C[C@@](C)(OC)[C@@H](O)[C@H](C)O2)[C@H](C)[C@@H](O[C@@H]2O[C@H](C)C[C@H](N(C)C)[C@H]2O)[C@](C)(O)C[C@@H](C)C(=O)[C@H](C)[C@@H](O)[C@]1(C)O [Erythromycin]
inactive: neuronal differentiation score (ReNCell VM [1]; library: Phytochemical) 0 | neuronal differentiation score (ReNCell VM [1]; library: Prestwick) 0 | dopaminergic neuron differentiation score (ReNCell VM [2]; library: Phytochemical) 0 | dopaminergic neuron differentiation score (ReNCell VM [2]; library: Prestwick) 0

CN(C(=O)CCCOc1ccc2[nH]c(=O)ccc2c1)C1CCCCC1 [Cilostamide]
active: dopaminergic neuron differentiation score (ReNCell VM [2]; library: LOPAC) 3
inactive: neuronal differentiation score (ReNCell VM [1]; library: LOPAC) 0 | neuronal differentiation score (ReNCell VM [1]; library: Tocriscreen) 0 | dopaminergic neuron differentiation score (ReNCell VM [2]; library: Tocriscreen) 1

CC[C@]12CCCN3CCc4c(n(c5ccccc45)[C@@](O)(C(=O)OC)C1)[C@@H]32 [Vincamine]
inactive: neuronal differentiation score (ReNCell VM [1]; library: Phytochemical) 0 | neuronal differentiation score (ReNCell VM [1]; library: Prestwick) 0 | dopaminergic neuron differentiation score (ReNCell VM [2]; library: Phytochemical) 0 | dopaminergic neuron differentiation score (ReNCell VM [2]; library: Prestwick) 0

CN(C)CCCN1c2ccccc2Sc2ccccc21 [Promazine hydrochloride]
inactive: neuronal differentiation score (ReNCell VM [1]; library: LOPAC) 0 | neuronal differentiation score (ReNCell VM [1]; library: Prestwick) 0 | dopaminergic neuron differentiation score (ReNCell VM [2]; library: LOPAC) 0 | dopaminergic neuron differentiation score (ReNCell VM [2]; library: Prestwick) 0

CN(C)c1ccc(/C=C2/C(=O)Nc3ccccc32)cc1
inactive: neuronal differentiation score (ReNCell VM [1]; library: LOPAC) 0 | neuronal differentiation score (ReNCell VM [1]; library: Tocriscreen) 0 | dopaminergic neuron differentiation score (ReNCell VM [2]; library: LOPAC) 1 | dopaminergic neuron differentiation score (ReNCell VM [2]; library: Tocriscreen) 0

O=c1cc(-c2ccc(O)c(O)c2)oc2cc(O)cc(O)c12 [Luteolin]
inactive: neuronal differentiation score (ReNCell VM [1]; library: Phytochemical) 0 | neuronal differentiation score (ReNCell VM [1]; library: Prestwick) 0 | dopaminergic neuron differentiation score (ReNCell VM [2]; library: Phytochemical) 0 | dopaminergic neuron differentiation score (ReNCell VM [2]; library: Prestwick) 0

Retrieved by compound from the entries so far, 2 records:
Oc1c2ccccc2c2c3c(cccc13)N=N2
inactive: neuronal differentiation score (ReNCell VM [1]; library: LOPAC) 0 | neuronal differentiation score (ReNCell VM [1]; library: Tocriscreen) 0 | dopaminergic neuron differentiation score (ReNCell VM [2]; library: LOPAC) 0 | dopaminergic neuron differentiation score (ReNCell VM [2]; library: Tocriscreen) 0

NC(N)=Nc1nc(CSCC/C(N)=N/S(N)(=O)=O)cs1 [Famotidine]
inactive: neuronal differentiation score (ReNCell VM [1]; library: LOPAC) 0 | neuronal differentiation score (ReNCell VM [1]; library: Prestwick) 0 | dopaminergic neuron differentiation score (ReNCell VM [2]; library: LOPAC) 0 | dopaminergic neuron differentiation score (ReNCell VM [2]; library: Prestwick) 0

Following part

Cc1ccc(=O)n(-c2ccccc2)c1 [Pirfenidone]
inactive: neuronal differentiation score (ReNCell VM [1]; library: LOPAC) 0 | neuronal differentiation score (ReNCell VM [1]; library: Tocriscreen) 0 | dopaminergic neuron differentiation score (ReNCell VM [2]; library: LOPAC) 0 | dopaminergic neuron differentiation score (ReNCell VM [2]; library: Tocriscreen) 0

O=C(O)c1cc(=O)c2ccccc2[nH]1 [Kynurenic acid]
active: dopaminergic neuron differentiation score (ReNCell VM [2]; library: Tocriscreen) 3
inactive: neuronal differentiation score (ReNCell VM [1]; library: LOPAC) 0 | neuronal differentiation score (ReNCell VM [1]; library: Tocriscreen) 0 | dopaminergic neuron differentiation score (ReNCell VM [2]; library: LOPAC) 1

c1ccc2c(c1)CCCC2C1=NCCN1 (centres undefined) [Tetrahydrozoline hydrochloride]
inactive: neuronal differentiation score (ReNCell VM [1]; library: LOPAC) 0 | neuronal differentiation score (ReNCell VM [1]; library: Prestwick) 0 | dopaminergic neuron differentiation score (ReNCell VM [2]; library: LOPAC) 0 | dopaminergic neuron differentiation score (ReNCell VM [2]; library: Prestwick) 0
